Laboratory results: patent US11591367B2 (DSM IP ASSETS B.V., priority 2016, dated 2023)

Assay: general procedure: Fmoc solid-phase peptide synthesis; Fmoc-ramage-resin (loading approx. 0.5 mmol/g) for free amides; 2-chloro-trityl-resin (approx. 0.5 mmol/g) for substitut; TBTU/DIPEA
Settings: whole synthesis, 2TFA; for isolated yield: scale of the general procedure approx. 2.5 g Fmoc-ramage-resin, approx. 2 g 2-chloro-trityl

Bz-Gly-D-His-D-Phe-Arg-Trp-N(Propyl)2 *2TFA
isolated mass: 113 mg
isolated yield: (10%)

Bz-Gly-His-D-Phe-Arg-(N-IndEt)Gly-NH2 *2TFA
isolated mass: 135 mg
isolated yield: (13%)

Bz-Gly-His-D-Phe-Arg-D-2-NaphAla-NH2 *2TFA
isolated mass: 351 mg
isolated yield: (32%)

Bz-Gly-His-D-Phe-Arg-D-Phe-NH2 *2TFA
isolated mass: 218 mg
isolated yield: (22%)

Bz-Gly-His-D-Phe-Arg-D-Trp-N(Propyl)2 *2TFA
isolated mass: 131 mg
isolated yield: (12%)

Bz-Gly-His-D-Phe-Arg-L-2-NaphAla-NH2 *2TFA
isolated mass: 413 mg
isolated yield: (39%)

Bz-Gly-His-D-Phe-Arg-Trp-N(Propyl)2 *2TFA
isolated mass: 196 mg
isolated yield: (36%)

Bz-Gly-His-D-Phe-Arg-Trp-NH2 *2TFA
isolated mass: 196 mg
isolated yield: (19%)

Bz-Gly-His-D-Phe-Arg-Trp-NHOctyl *2TFA
isolated mass: 278 mg
isolated yield: (28%)

Bz-Gly-His-D-Phe-Arg-Tryptamide *2TFA
isolated mass: 40 mg
isolated yield: (4%)

Bz-Gly-His-D-Phe-D-Arg-Trp-N(Propyl)2 *2TFA
isolated mass: 214 mg
isolated yield: (18%)

Bz-Gly-His-D-Phe-Dab-Trp-NH2 *2TFA
isolated mass: 170 mg
isolated yield: (14%)

Bz-Gly-His-Phe-Arg-Trp-N(Propyl)2 *2TFA
isolated mass: 176 mg
isolated yield: (15%)
